In PubChem BioAssay AID330 (DTP/NCI, 2004):
The list is a part of this screen's results and no random one: its compounds were picked by chemical class. Not every dose and run of a compound is shown. T/C: endpoint of the treated group in % of that of the vehicle group. Some entries give survivors of the animals treated and no T/C: the source files T/C as zero there, which appears to mark a toxic dose or a test without result, not a measured value. Some survivor counts are full or nearly so, which does not show that the dose was tolerated: survival well below the control is almost never listed, so the zero probably covers shortened survival too. Survivors were counted at the toxicity check, usually on the fifth day, unless a day is given; later deaths do not show. Schedules are NCI's codes, read here as Q, the interval in days (D) or hours (H), X, the number of doses. For survival time, the PubChem record calls one and a half times the control and up active, and a quarter to a half above the control has no call in these data; cut-offs in other NCI protocols can differ. Some T/C values carry the count of animals alive at the toxicity check (mostly the fifth day); where neither a count nor a note follows, no animal had died by that day.

System: P388 leukemia ip, CD2F1 mice, survival T/C
Experiment: NCI In Vivo Anticancer Drug Screen. Data for tumor model P388 Leukemia (intraperitoneal) in CD2F1 (CDF1) mice
Details: T/C endpoint: median survival time, vehicle: Klucel (hydroxypropylcellulose) (HPC), higher T/C = longer survival

## O=NN1CCN/C1=N\[N+](=O)[O-]
dose: 4.0 mg/kg/injection, schedule: Q03HX024 (ip)
  survivor count: 9 of 10
dose: 8.0 mg/kg/injection, schedule: Q03HX016 (ip)
  T/C: 87 % of control [9 of 10 alive]
dose: 8.0 mg/kg/injection, schedule: Q03HX024 (ip)
  T/C: 100 % of control [9 of 10 alive]
dose: 16.0 mg/kg/injection, schedule: Q03HX008 (ip)
  T/C: 102 % of control
dose: 16.0 mg/kg/injection, schedule: Q03HX016 (ip)
  T/C: 106 % of control
dose: 16.0 mg/kg/injection, schedule: Q03HX024 (ip)
  T/C: 101 % of control [7 of 10 alive]
dose: 32.0 mg/kg/injection, schedule: Q01DX009 (ip)
  T/C: 111 % of control
dose: 32.0 mg/kg/injection, schedule: Q01DX009 (sc)
  T/C: 100 % of control
dose: 32.0 mg/kg/injection, schedule: Q03HX008 (ip)
  T/C: 111 % of control [9 of 10 alive]
dose: 32.0 mg/kg/injection, schedule: Q03HX016 (ip)
  T/C: 103 % of control [9 of 10 alive]
dose: 32.0 mg/kg/injection, schedule: Q03HX024 (ip)
  T/C: 87 % of control [9 of 10 alive]
dose: 32.0 mg/kg/injection, schedule: Q04DX003 (ip)
  T/C: 113 % of control
dose: 64.0 mg/kg/injection, schedule: Q01DX009 (ip)
  T/C: 119 % of control
dose: 64.0 mg/kg/injection, schedule: Q01DX009 (sc)
  T/C: 106 % of control
dose: 64.0 mg/kg/injection, schedule: Q03HX008 (ip)
  T/C: 110 % of control [8 of 10 alive]
dose: 64.0 mg/kg/injection, schedule: Q03HX016 (ip)
  survivor count: 5 of 10
dose: 64.0 mg/kg/injection, schedule: Q03HX024 (ip)
  survivor count: 3 of 10
dose: 64.0 mg/kg/injection, schedule: Q04DX003 (ip)
  T/C: 113 % of control
dose: 64.0 mg/kg/injection, schedule: Q08DX002 (ip)
  T/C: 106 % of control
dose: 100.0 mg/kg/injection, schedule: Q04DX003 (ip)
  T/C: 118 % of control
dose: 128.0 mg/kg/injection, schedule: Q01DX001 (ip)
  T/C: 102 % of control [8 of 10 alive]
dose: 128.0 mg/kg/injection, schedule: Q01DX001 (sc)
  T/C: 108 % of control [7 of 10 alive]
dose: 128.0 mg/kg/injection, schedule: Q01DX009 (ip)
  T/C: 105 % of control
dose: 128.0 mg/kg/injection, schedule: Q01DX009 (oral)
  T/C: 99 % of control
dose: 128.0 mg/kg/injection, schedule: Q01DX009 (sc)
  T/C: 103 % of control
dose: 128.0 mg/kg/injection, schedule: Q03HX008 (ip)
  survivor count: 0 of 10
dose: 128.0 mg/kg/injection, schedule: Q03HX016 (ip)
  survivor count: 0 of 10
dose: 128.0 mg/kg/injection, schedule: Q04DX003 (ip)
  T/C: 112 % of control
dose: 128.0 mg/kg/injection, schedule: Q08DX002 (ip)
  T/C: 105 % of control
dose: 200.0 mg/kg/injection, schedule: Q04DX003 (ip)
  T/C: 109 % of control
dose: 256.0 mg/kg/injection, schedule: Q01DX001 (ip)
  T/C: 112 % of control [7 of 10 alive]
dose: 256.0 mg/kg/injection, schedule: Q01DX001 (oral)
  T/C: 99 % of control
dose: 256.0 mg/kg/injection, schedule: Q01DX001 (sc)
  survivor count: 6 of 10
dose: 256.0 mg/kg/injection, schedule: Q01DX009 (ip)
  survivor count: 3 of 10
dose: 256.0 mg/kg/injection, schedule: Q01DX009 (oral)
  T/C: 95 % of control
dose: 256.0 mg/kg/injection, schedule: Q01DX009 (sc)
  T/C: 103 % of control
dose: 256.0 mg/kg/injection, schedule: Q03HX008 (ip)
  survivor count: 0 of 10
dose: 256.0 mg/kg/injection, schedule: Q04DX003 (ip)
  T/C: 115 % of control
dose: 256.0 mg/kg/injection, schedule: Q08DX002 (ip)
  T/C: 100 % of control
dose: 400.0 mg/kg/injection, schedule: Q04DX003 (ip)
  survivor count: 3 of 6
dose: 512.0 mg/kg/injection, schedule: Q01DX001 (ip)
  survivor count: 0 of 10
dose: 512.0 mg/kg/injection, schedule: Q01DX001 (oral)
  T/C: 100 % of control [9 of 10 alive]
dose: 512.0 mg/kg/injection, schedule: Q01DX001 (sc)
  survivor count: 3 of 10
dose: 512.0 mg/kg/injection, schedule: Q01DX009 (ip)
  survivor count: 0 of 10
dose: 512.0 mg/kg/injection, schedule: Q01DX009 (oral)
  T/C: 95 % of control
dose: 512.0 mg/kg/injection, schedule: Q01DX009 (sc)
  survivor count: 4 of 10
dose: 512.0 mg/kg/injection, schedule: Q04DX003 (ip)
  survivor count: 5 of 10
dose: 512.0 mg/kg/injection, schedule: Q08DX002 (ip)
  survivor count: 1 of 10
dose: 1024.0 mg/kg/injection, schedule: Q01DX001 (ip)
  survivor count: 0 of 10
dose: 1024.0 mg/kg/injection, schedule: Q01DX001 (oral)
  survivor count: 5 of 10
dose: 1024.0 mg/kg/injection, schedule: Q01DX001 (sc)
  survivor count: 2 of 10
dose: 1024.0 mg/kg/injection, schedule: Q01DX009 (oral)
  survivor count: 5 of 10
dose: 1024.0 mg/kg/injection, schedule: Q08DX002 (ip)
  survivor count: 0 of 10
dose: 2048.0 mg/kg/injection, schedule: Q01DX001 (ip)
  survivor count: 0 of 10
dose: 2048.0 mg/kg/injection, schedule: Q01DX001 (oral)
  survivor count: 0 of 10
dose: 2048.0 mg/kg/injection, schedule: Q01DX001 (sc)
  survivor count: 0 of 10
